Measured values: article PMC10166787
These are yes or no findings as the source states them, for the method shown. Binding seen in cells or lysates may run through a third protein. Some entries that bind do so weakly or less than the wild type.

The chains behind the UniProt entries cited, without tags or fusion partners. Where a name states a change or a piece, a line headed by the entry shows the natural chain unless it says otherwise.
UniProt Q9BV86: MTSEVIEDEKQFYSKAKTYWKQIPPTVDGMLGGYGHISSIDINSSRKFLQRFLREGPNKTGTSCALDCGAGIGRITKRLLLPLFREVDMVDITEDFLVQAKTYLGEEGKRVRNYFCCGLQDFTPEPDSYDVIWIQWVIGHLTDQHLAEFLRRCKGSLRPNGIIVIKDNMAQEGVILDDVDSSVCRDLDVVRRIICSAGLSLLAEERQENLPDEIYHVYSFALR
UniProt Q5VVY1: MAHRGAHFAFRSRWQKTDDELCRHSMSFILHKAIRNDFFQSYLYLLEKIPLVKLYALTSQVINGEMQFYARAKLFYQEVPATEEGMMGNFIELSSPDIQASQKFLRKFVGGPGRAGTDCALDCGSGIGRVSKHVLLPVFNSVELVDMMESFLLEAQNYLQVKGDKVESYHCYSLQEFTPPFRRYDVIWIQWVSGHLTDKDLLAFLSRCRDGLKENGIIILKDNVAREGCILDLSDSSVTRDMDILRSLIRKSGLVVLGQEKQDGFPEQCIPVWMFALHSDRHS

Key:
[1] = biological target: METTL11A-FLAG R78G (human) (UniProt Q9BV86); assay: co-IP; HEK293T cells co-transfected with a FLAG and a GFP construct; lysis in 50 mM Tris, 300 mM NaCl, 5 mM MgCl2, 1% NP-40, 7 mM BME; anti-FLAG M2 agarose, 1 to 2 h at 4 °C; washes with PBS + 0.1% NP-40 + 500 mM NaCl; Western blot with anti-GFP
METTL11A-FLAG (human) = METTL11A-FLAG (human) (UniProt Q9BV86); assay: as above

binding [1]: binds
binding (METTL11A-FLAG (human)): binds
Substance: METTL11B-GFP (from UniProt Q5VVY1 1-283) (enzyme)
